Test results as given in PMC12440825.
Results are given in words; binding and its absence hold for the method and conditions named. Binding seen in cells or lysates may run through a third protein. Some results given as binding are weak or reduced against the parent protein; the word gives no strength. Tags and fused reporters may be left off the sequences shown.

The chains behind the UniProt entries cited, without tags or fusion partners.
UniProt P40357: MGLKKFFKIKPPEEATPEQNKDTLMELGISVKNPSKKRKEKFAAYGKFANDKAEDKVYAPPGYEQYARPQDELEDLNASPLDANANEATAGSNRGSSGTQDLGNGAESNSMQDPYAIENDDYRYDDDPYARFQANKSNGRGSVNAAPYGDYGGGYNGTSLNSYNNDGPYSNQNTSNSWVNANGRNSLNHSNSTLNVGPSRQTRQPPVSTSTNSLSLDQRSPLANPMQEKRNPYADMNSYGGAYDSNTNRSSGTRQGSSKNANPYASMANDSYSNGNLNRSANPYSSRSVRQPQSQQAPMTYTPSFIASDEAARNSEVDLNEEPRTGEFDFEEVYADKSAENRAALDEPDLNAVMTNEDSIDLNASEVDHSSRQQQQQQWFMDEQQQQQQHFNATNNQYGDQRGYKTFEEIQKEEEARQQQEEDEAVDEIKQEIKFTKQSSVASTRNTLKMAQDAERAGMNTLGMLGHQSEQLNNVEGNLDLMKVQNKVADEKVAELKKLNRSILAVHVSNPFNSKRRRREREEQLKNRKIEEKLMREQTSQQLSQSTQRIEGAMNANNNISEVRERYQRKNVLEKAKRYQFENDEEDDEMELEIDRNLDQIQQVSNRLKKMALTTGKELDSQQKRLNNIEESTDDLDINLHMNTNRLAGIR
UniProt P33328: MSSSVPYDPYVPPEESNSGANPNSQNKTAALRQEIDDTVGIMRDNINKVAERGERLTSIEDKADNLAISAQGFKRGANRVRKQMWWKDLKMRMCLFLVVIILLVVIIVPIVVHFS
UniProt P32867: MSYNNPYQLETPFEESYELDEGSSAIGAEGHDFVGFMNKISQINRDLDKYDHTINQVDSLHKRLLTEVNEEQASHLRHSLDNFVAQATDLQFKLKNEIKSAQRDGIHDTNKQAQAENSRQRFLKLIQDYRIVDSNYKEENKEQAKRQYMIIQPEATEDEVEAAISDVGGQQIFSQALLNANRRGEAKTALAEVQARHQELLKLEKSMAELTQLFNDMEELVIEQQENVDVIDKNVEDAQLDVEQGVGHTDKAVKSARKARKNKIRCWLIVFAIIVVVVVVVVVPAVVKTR
UniProt Q08144: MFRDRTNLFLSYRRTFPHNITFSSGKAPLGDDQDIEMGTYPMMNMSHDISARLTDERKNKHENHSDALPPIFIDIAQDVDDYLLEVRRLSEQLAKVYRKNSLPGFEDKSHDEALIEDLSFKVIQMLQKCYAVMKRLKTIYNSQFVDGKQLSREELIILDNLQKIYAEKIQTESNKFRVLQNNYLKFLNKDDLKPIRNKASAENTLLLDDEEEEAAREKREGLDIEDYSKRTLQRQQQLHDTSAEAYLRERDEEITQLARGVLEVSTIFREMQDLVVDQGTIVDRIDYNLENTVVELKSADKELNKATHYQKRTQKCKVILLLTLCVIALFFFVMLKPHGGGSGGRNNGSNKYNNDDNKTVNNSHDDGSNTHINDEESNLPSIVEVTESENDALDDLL

What follows are substances tested against T1, HA-tagged Sec18 (pYK175, 3×Flag N-terminal tag, HA C-terminal tag) (S. cerevisiae) (UniProt P18759) (assay: cross-linking; in vivo XL-MS: spheroplasts of S. cerevisiae S288C expressing tagged Sec18 treated with DSG (5 mM) for 30 min, lysis, magnetic bead anti-HA co-IP, SDS-PAGE bands of crosslinked Sec18 excised, LC-MS/MS; crosslinks graded high, medium or low confidence).
T1 sequence: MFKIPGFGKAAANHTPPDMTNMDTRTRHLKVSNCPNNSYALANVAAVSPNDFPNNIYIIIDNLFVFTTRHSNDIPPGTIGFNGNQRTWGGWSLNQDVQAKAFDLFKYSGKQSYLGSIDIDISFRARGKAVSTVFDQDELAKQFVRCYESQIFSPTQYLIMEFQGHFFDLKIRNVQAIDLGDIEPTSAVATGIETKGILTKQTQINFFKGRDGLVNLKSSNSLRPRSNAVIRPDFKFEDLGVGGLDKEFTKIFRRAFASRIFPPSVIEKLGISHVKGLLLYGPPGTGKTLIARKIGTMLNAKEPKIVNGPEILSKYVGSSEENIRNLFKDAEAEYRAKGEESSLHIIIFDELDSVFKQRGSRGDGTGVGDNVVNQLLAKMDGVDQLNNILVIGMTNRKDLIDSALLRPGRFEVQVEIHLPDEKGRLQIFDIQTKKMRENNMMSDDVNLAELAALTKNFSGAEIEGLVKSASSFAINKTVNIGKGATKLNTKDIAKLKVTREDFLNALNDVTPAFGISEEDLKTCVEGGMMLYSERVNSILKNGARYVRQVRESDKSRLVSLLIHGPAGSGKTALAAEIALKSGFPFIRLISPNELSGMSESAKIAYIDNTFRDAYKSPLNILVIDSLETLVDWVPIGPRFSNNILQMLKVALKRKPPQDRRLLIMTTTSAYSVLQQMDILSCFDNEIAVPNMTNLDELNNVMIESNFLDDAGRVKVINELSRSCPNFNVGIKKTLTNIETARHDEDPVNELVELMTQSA
With “Sec9 (endogenous) (from UniProt P40357 1-651)” the binding was “binds”. With “Snc2 (endogenous) (from UniProt P33328 1-115)” the binding was “binds”. In the case of “Sso1 (endogenous) (from UniProt P32867 1-290)”, the binding is reported as “binds”. “TLG2 (endogenous) (from UniProt Q08144 1-397)” was tested, and the binding was “binds”.
